In the data set the target is T1, His-SlTCP10 (Solanum lycopersicum) (UniProt G3BGV0).
T1 sequence (looked up, limits assumed): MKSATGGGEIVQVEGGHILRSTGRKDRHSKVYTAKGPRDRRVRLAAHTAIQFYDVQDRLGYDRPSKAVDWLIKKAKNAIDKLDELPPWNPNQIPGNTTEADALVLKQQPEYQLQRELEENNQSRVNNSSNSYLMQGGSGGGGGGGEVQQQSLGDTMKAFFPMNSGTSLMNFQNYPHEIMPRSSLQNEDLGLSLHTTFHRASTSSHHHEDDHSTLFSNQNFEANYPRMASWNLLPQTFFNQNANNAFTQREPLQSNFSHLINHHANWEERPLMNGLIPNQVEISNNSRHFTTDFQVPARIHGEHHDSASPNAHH
Description: EMSA. The following applies: 50x and 100x unlabelled probe weakened the band; Chemiluminescent biotin EMSA, 0.5x TBE gel, 100 V on ice; binding buffer, salt and pH not stated; recombinant protein; protein details: His; label: biotin. (In EMSA bound probe runs differently from free probe, usually more slowly.)

The exact form of at least one protein or probe is not confirmed. Where a protein sequence is shown, tags need not be part of it.

The record followed here is paper PMC10138608.

As to “TTTATTTAGATTCATGTATTTGGTCCAAAACTTTACTGCTCGATAAGGTC (double strand) [JA2p-EMSA (SlJA2 promoter probe)]”, the binding result is “binds”.
